The supplement of paper PMC10849652
This is one part of the list.

By UniProt entry, the sequences of proteins in these tests, tags left out. Where a name states a change or a piece, a line headed by the entry shows the natural chain unless it says otherwise.
UniProt Q5VZE5: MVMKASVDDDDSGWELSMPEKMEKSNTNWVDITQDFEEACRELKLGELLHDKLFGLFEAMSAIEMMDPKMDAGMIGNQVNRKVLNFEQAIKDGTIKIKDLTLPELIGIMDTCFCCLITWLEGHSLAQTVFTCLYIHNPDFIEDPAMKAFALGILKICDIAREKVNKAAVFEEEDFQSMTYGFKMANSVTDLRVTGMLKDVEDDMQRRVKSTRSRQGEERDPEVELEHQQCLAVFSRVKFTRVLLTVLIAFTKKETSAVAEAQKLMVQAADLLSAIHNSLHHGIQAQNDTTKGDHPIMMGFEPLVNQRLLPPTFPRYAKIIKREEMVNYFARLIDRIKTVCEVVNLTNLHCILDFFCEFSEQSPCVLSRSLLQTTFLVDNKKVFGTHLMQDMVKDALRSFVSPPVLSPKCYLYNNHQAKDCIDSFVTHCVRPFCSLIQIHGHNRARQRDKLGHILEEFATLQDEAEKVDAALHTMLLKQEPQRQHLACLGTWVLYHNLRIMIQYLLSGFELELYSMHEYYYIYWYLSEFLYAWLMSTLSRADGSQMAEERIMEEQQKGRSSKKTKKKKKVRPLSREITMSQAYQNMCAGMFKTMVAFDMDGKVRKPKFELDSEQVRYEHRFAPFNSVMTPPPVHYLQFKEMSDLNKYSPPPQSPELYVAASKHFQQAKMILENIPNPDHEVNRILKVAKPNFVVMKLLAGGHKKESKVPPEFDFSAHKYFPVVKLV
UniProt P52298: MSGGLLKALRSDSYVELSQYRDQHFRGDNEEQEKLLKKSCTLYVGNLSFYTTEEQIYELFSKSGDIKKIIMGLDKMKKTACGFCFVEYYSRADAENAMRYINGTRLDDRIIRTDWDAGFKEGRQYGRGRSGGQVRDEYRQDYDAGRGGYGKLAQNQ
UniProt P41227: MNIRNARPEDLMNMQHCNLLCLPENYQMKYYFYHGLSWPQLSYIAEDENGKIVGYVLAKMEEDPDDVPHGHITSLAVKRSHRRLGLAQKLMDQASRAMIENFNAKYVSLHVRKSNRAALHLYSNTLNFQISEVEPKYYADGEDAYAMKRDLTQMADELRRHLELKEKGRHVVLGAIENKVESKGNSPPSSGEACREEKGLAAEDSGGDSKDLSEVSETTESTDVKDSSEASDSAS
UniProt P62166, whole entry, looked up: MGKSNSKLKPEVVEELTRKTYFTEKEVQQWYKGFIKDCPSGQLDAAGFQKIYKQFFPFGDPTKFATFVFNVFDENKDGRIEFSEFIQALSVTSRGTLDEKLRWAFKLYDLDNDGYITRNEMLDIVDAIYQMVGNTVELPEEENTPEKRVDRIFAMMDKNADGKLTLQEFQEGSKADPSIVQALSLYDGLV
UniProt Q96I59: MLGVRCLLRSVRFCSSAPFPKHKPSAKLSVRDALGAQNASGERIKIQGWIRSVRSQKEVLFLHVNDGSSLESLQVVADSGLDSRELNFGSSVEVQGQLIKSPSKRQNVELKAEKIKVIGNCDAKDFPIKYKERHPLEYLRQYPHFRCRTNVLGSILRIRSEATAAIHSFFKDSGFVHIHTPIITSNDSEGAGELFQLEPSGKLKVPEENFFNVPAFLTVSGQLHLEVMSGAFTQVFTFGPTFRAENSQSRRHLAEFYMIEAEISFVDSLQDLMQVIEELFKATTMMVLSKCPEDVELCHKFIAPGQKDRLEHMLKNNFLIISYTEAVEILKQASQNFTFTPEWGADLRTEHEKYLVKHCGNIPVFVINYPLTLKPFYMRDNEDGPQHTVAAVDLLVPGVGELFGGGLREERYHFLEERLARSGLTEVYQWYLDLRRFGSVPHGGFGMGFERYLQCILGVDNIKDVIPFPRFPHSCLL
UniProt Q8TBE9: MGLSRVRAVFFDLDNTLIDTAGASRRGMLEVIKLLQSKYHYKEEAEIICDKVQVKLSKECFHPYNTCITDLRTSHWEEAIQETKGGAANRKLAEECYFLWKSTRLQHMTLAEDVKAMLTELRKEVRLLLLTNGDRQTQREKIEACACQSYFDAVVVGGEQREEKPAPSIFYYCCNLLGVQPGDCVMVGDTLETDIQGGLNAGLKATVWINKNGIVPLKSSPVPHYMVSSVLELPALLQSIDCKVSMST
UniProt P60660, whole entry, looked up: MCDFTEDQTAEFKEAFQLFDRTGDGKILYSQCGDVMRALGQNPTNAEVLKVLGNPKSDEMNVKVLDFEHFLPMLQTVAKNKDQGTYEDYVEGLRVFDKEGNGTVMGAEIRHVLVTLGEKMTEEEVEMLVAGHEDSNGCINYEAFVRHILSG
UniProt Q9BQG0: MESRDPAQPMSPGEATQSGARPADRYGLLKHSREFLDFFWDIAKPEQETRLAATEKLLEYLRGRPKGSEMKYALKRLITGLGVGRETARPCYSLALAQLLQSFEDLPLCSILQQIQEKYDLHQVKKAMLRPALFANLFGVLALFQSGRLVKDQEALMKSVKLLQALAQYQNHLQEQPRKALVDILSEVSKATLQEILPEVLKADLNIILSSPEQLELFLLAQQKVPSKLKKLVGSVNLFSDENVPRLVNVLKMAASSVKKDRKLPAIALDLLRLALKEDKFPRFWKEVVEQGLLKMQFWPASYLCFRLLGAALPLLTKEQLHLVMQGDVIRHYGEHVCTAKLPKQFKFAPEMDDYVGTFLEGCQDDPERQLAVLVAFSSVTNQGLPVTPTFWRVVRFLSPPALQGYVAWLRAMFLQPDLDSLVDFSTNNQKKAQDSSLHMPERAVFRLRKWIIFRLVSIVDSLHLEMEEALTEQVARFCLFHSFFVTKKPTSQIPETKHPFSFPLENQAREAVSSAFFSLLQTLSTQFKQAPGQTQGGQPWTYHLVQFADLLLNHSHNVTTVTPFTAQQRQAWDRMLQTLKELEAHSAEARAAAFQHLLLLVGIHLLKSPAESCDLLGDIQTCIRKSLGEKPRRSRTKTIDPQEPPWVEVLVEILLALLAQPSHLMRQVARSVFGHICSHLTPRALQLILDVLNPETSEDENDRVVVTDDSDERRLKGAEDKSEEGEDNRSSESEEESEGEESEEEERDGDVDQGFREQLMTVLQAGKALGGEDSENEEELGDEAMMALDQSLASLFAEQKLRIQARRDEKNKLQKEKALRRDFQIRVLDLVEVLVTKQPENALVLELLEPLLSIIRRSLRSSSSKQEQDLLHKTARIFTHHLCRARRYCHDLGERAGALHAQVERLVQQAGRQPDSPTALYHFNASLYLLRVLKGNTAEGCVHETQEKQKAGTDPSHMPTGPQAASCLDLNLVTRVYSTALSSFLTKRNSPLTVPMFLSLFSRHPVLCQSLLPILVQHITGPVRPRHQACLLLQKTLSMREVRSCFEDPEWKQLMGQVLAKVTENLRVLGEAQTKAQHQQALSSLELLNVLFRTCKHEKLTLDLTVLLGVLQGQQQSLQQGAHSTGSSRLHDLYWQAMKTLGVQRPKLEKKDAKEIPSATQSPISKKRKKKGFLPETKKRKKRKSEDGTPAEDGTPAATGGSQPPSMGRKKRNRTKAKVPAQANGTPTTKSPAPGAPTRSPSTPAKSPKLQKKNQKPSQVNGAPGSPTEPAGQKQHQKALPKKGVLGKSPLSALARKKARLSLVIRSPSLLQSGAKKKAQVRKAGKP
UniProt Q8IW45: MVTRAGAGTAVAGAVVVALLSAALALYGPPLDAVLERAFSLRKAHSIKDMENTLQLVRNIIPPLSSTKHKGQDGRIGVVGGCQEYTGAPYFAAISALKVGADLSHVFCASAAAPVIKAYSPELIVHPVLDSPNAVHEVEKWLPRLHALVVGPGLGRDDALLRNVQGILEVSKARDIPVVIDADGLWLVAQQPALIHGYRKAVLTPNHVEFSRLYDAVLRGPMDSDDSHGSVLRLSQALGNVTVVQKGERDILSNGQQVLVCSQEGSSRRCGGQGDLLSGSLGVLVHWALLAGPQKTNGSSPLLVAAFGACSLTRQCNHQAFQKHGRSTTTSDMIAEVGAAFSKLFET
UniProt Q9UK23: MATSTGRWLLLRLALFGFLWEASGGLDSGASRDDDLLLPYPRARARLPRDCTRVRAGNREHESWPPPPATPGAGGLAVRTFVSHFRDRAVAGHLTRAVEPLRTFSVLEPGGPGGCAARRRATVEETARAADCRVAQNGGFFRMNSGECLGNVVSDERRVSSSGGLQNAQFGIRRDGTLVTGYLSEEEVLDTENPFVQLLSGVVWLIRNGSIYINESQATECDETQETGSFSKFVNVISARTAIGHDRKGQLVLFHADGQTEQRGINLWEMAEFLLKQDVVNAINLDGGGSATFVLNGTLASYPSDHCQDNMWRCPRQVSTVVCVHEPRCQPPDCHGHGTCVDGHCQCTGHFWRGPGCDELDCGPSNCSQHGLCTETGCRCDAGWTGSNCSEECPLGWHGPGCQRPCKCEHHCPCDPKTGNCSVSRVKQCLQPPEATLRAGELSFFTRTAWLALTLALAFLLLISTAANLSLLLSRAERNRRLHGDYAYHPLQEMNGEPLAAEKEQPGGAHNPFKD
UniProt Q96NY9: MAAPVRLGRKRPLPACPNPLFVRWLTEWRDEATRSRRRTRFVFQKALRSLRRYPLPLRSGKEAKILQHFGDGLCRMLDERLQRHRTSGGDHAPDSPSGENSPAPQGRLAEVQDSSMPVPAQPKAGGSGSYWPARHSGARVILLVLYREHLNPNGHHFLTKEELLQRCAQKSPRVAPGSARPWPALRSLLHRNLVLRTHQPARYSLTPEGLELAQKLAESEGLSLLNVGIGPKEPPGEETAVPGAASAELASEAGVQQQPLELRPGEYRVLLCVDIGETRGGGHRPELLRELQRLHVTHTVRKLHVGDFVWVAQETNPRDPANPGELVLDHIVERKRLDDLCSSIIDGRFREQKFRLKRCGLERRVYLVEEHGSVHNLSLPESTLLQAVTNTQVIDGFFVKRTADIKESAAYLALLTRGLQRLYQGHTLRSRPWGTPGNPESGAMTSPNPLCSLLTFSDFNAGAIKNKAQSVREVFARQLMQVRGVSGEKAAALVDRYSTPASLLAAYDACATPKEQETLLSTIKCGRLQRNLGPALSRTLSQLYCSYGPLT
UniProt Q9HCH0: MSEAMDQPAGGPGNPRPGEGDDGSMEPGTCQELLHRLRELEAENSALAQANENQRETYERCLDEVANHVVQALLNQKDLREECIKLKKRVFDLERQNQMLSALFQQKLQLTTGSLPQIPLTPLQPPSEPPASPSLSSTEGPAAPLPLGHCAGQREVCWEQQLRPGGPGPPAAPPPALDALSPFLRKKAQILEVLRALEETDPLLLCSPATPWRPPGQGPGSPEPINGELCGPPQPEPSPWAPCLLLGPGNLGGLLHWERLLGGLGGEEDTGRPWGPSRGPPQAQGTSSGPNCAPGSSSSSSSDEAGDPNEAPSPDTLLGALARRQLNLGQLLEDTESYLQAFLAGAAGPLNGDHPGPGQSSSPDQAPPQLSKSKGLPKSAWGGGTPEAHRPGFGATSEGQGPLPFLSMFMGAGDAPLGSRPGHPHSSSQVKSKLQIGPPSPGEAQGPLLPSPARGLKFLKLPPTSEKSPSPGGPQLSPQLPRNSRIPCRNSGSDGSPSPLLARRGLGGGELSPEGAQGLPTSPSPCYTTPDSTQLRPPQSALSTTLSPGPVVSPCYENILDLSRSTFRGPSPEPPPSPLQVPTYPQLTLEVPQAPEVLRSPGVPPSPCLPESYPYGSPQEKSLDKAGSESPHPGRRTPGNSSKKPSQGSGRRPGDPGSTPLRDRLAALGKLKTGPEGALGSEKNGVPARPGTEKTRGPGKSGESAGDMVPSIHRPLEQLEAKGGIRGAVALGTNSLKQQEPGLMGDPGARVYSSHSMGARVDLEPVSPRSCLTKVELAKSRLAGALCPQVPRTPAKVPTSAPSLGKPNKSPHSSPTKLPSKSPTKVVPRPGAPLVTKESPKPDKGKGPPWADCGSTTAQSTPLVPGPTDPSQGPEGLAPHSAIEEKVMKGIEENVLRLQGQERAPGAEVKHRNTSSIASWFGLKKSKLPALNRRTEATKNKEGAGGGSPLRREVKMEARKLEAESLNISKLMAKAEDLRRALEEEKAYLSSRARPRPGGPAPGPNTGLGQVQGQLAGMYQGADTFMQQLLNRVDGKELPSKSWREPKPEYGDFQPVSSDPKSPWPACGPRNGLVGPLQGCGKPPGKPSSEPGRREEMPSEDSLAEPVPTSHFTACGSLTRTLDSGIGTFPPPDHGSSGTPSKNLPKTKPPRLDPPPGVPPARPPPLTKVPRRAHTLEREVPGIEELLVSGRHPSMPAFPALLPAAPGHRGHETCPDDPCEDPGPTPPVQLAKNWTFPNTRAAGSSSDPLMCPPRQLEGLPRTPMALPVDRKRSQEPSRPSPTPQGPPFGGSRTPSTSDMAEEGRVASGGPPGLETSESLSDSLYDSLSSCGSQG

Assays:
Assay in all cases: log2 fold change, soluble protein after heating vs DMSO (PISA); higher = thermal stabilisation; K562 lysate, 10 uM; active = over 0.2 and 3.5 SD of the protein, either way, in both replicates (recomputed)
nilotinib = compound: Cc1cn(-c2cc(NC(=O)c3ccc(C)c(Nc4nccc(-c5cccnc5)n4)c3)cc(C(F)(F)F)c2)cn1 [nilotinib]
In short: (§1)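 K562 pellets were dounce-homogenised in PBS pH 7.4 with 1 mM MgCl2, and the crude extract at 1 mg/mL protein was treated with 10 μM compound for 30 min. Aliquots were heated for 3 min across 48°C-58°C, pooled, and brought to 0.5% NP-40 at 4°C; soluble protein was the supernatant after 21,000xg for 90 min. Soluble protein was quantified by TMTpro 16plex LC-MS/MS with channel sums equalised, and reported as log2 fold change in thermal stability against DMSO controls, with values from duplicates.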

[1] = compound: Cc1nc(Nc2n[nH]c3c2CN(C(=O)N[C@H](CN(C)C)c2ccccc2)C3(C)C)c2sccc2n1
In short: as §1

dasatinib = compound: Cc1nc(Nc2ncc(C(=O)Nc3c(C)cccc3Cl)s2)cc(N2CCN(CCO)CC2)n1 [dasatinib]
In short: as §1

[2] = compound: Cc1ncc(-c2ccnc(Nc3ccc(S(C)(=O)=O)cc3)n2)n1C(C)C
In short: as §1

[3] = compound: Cn1cc(-c2ccc3c(c2)CCN3C(=O)Cc2cccc(C(F)(F)F)c2)c2c(N)ncnc21
In short: as §1

quisinostat = compound: Cn1cc(CNCC2CCN(c3ncc(C(=O)NO)cn3)CC2)c2ccccc21 [quisinostat]
In short: as §1

tipifarnib = compound: Cn1cncc1[C@@](N)(c1ccc(Cl)cc1)c1ccc2c(c1)c(-c1cccc(Cl)c1)cc(=O)n2C [tipifarnib]
In short: as §1

[4] = compound: NC(=O)Nc1cc(-c2cccc(F)c2)sc1C(=O)N[C@H]1CCCNC1
In short: as §1

[5] = compound: NC(=O)c1cnc(N[C@@H]2CCCC[C@@H]2N)nc1Nc1cccc(-n2nccn2)c1
In short: as §1

[6] = compound: NC1(c2ccc(-c3nc4ccn5c(=O)[nH]nc5c4cc3-c3ccccc3)cc2)CCC1
In short: as §1

[7] = compound: NCC(=O)Nc1ccc(-n2nc(C(F)(F)F)cc2-c2ccc3c(ccc4ccccc43)c2)cc1
In short: as §1

vorinostat = compound: O=C(CCCCCCC(=O)Nc1ccccc1)NO [vorinostat]
In short: as §1

silmitasertib = compound: O=C(O)c1ccc2c(c1)nc(Nc1cccc(Cl)c1)c1ccncc12 [silmitasertib]
In short: as §1

[8] = compound: O=C1NC(=O)C(c2cnc3ccccn23)=C1c1cn2c3c(cc(F)cc13)CN(C(=O)N1CCCCC1)CC2
In short: as §1

entospletinib = compound: c1cn2cc(-c3ccc4cn[nH]c4c3)nc(Nc3ccc(N4CCOCC4)cc3)c2n1 [entospletinib]
In short: as §1

Target | log2 fold change (nilotinib) | log2 fold change [1] | log2 fold change (dasatinib) | log2 fold change [2] | log2 fold change [3] | log2 fold change (quisinostat) | log2 fold change (tipifarnib) | log2 fold change [4] | log2 fold change [5] | log2 fold change [6] | log2 fold change [7] | log2 fold change (vorinostat) | log2 fold change (silmitasertib) | log2 fold change [8] | log2 fold change (entospletinib)
NAA35 (UniProt Q5VZE5) | inactive: -0.019 | inactive: 0.014 | inactive: -0.005 | inactive: 0.009 | inactive: 0.01 | inactive: -0.075 | inactive: 0.034 | inactive: 0.001 | inactive: -0.035 | inactive: 0.016 | inactive: -0.04 | active: -0.308 | inactive: 0.017 | inactive: 0.004 | inactive: 0.028
NCBP2 (UniProt P52298) | inactive: -0.031 | inactive: 0.042 | inactive: 0.05 | inactive: -0.025 | inactive: 0.033 | inactive: 0.033 | inactive: -0.008 | inactive: 0.043 | inactive: -0.001 | inactive: -0.032 | inactive: -0.024 | inactive: -0.013 | inactive: 0.047 | inactive: -0.024 | inactive: -0.008
NAA10 (UniProt P41227) | inactive: 0.015 | inactive: -0.01 | inactive: -0.026 | inactive: -0.001 | inactive: -0.01 | inactive: 0.067 | inactive: 0.034 | inactive: -0.005 | inactive: 0.002 | inactive: 0.019 | inactive: -0.002 | inactive: -0.029 | inactive: -0.018 | inactive: -0.023 | inactive: -0.004
NCS1 (UniProt P62166) | inactive: -0.003 | inactive: 0.012 | inactive: 0.014 | inactive: 0.015 | inactive: -0.004 | inactive: -0.013 | inactive: 0.016 | inactive: -0.003 | inactive: -0.015 | inactive: 0.037 | inactive: 0.006 | inactive: 0.049 | inactive: -0.019 | inactive: -0.037 | inactive: -0.021
NARS2 (UniProt Q96I59) | inactive: 0.019 | inactive: -0.027 | inactive: -0.046 | inactive: -0.014 | inactive: 0.026 | inactive: -0.023 | inactive: 0.007 | inactive: 0.051 | inactive: 0.037 | inactive: -0.037 | inactive: 0.063 | active: -0.344 | inactive: 0.05 | inactive: -0.029 | inactive: -0.079
NCAPD3 (UniProt P42695) | inactive: 0.005 | inactive: -0.022 | inactive: -0.041 | inactive: 0.005 | inactive: 0.005 | inactive: -0.06 | inactive: 0.005 | inactive: 0.078 | inactive: -0.014 | inactive: -0.028 | inactive: -0.005 | active: -0.562 | inactive: 0.034 | inactive: -0.022 | inactive: -0.007
NANP (UniProt Q8TBE9) | inactive: 0.008 | inactive: -0.043 | inactive: -0.064 | inactive: -0.024 | inactive: -0.029 | inactive: -0.007 | inactive: 0.061 | inactive: 0.006 | inactive: -0.067 | inactive: 0.117 | inactive: -0.07 | inactive: -0.158 | inactive: 0.179 | inactive: -0.043 | inactive: 0.019
NCOR2 (UniProt C9J0Q5) | inactive: 0.09 | inactive: -0.034 | inactive: -0.082 | inactive: 0.043 | inactive: -0.015 | inactive: -0.034 | inactive: -0.045 | inactive: 0.047 | inactive: 0.025 | inactive: 0.022 | inactive: 0.093 | active: -0.27 | inactive: -0.016 | inactive: 0.011 | inactive: -0.074
MYL6 (UniProt P60660) | inactive: 0.003 | inactive: 0.006 | inactive: 0.023 | inactive: 0.01 | inactive: 0.018 | inactive: -0.016 | inactive: 0.032 | inactive: 0.002 | inactive: -0.033 | inactive: -0.019 | inactive: -0.113 | inactive: 0.072 | inactive: 0.001 | inactive: 0.007 | inactive: -0.044
MYBBP1A isoform 2 (UniProt Q9BQG0) | inactive: -0.011 | inactive: -0.01 | inactive: -0.054 | inactive: 0.006 | inactive: 0.005 | inactive: -0.048 | inactive: 0.013 | inactive: 0.024 | inactive: 0.003 | inactive: -0.01 | inactive: -0.034 | inactive: -0.072 | inactive: 0.041 | inactive: 0.026 | inactive: 0.001
NAXD (UniProt Q8IW45) | inactive: 0.014 | inactive: -0.092 | inactive: 0.003 | inactive: 0.066 | inactive: -0.006 | inactive: -0.01 | inactive: 0.077 | inactive: -0.013 | inactive: 0.002 | inactive: -0.047 | inactive: -0.12 | inactive: 0.151 | inactive: -0.069 | inactive: 0.008 | inactive: -0.026
NAP1L1 (UniProt P55209) | inactive: 0.036 | inactive: -0.017 | inactive: 0.028 | inactive: -0.062 | inactive: 0.004 | inactive: 0.008 | inactive: -0.024 | inactive: -0.001 | inactive: 0.035 | inactive: 0.007 | inactive: -0.021 | inactive: 0.101 | inactive: -0.01 | inactive: 0.006 | inactive: -0.014
NCBP3 (UniProt Q53F19) | inactive: 0.109 | inactive: -0.019 | inactive: 0.057 | inactive: 0.154 | inactive: 0 | inactive: -0.006 | inactive: -0.068 | inactive: 0.019 | inactive: 0.043 | inactive: -0.052 | inactive: 0.108 | inactive: -0.029 | inactive: -0.101 | inactive: -0.101 | inactive: -0.022
NCK1 (UniProt P16333) | inactive: -0.071 | inactive: 0.015 | inactive: -0.005 | inactive: -0.037 | inactive: -0.015 | inactive: -0.053 | inactive: 0.018 | inactive: 0.029 | inactive: 0.001 | inactive: 0.008 | inactive: 0.048 | active: -0.281 | inactive: 0.01 | inactive: -0.014 | inactive: 0.019
MUC5B (UniProt Q9HC84) | inactive: -0.064 | inactive: -0.111 | inactive: -0.009 | inactive: -0.005 | inactive: -0.018 | inactive: -0.192 | inactive: -0.051 | inactive: 0.077 | inactive: 0.064 | inactive: 0.008 | – | inactive: -0.374 | inactive: 0.128 | inactive: -0.011 | inactive: 0.022
NAGPA (UniProt Q9UK23) | inactive: 0.021 | inactive: 0.181 | inactive: -0.117 | inactive: -0.205 | inactive: 0.115 | – | inactive: -0.495 | – | inactive: 0.102 | inactive: 0.008 | inactive: 0.132 | inactive: 0.082 | inactive: -0.059 | – | –
MUS81 (UniProt Q96NY9) | inactive: 0.037 | inactive: -0.007 | inactive: 0.152 | inactive: -0.112 | inactive: -0.029 | inactive: -0.115 | inactive: -0.026 | inactive: 0.03 | inactive: -0.148 | inactive: 0.11 | – | inactive: -0.028 | inactive: 0.081 | inactive: 0.082 | –
NCKAP5L (UniProt Q9HCH0) | inactive: 0 | inactive: 0.02 | inactive: 0.021 | inactive: 0.01 | inactive: -0.065 | inactive: -0.021 | inactive: -0.079 | inactive: 0.037 | inactive: 0.034 | inactive: -0.07 | – | inactive: -0.129 | inactive: 0.067 | inactive: -0.007 | inactive: 0.011

2 entries from above in a different format:
Target	log2 fold change (nilotinib)	log2 fold change [1]	log2 fold change (dasatinib)	log2 fold change [2]	log2 fold change [3]	log2 fold change (quisinostat)	log2 fold change (tipifarnib)	log2 fold change [4]	log2 fold change [5]	log2 fold change [6]	log2 fold change [7]	log2 fold change (vorinostat)	log2 fold change (silmitasertib)	log2 fold change [8]	log2 fold change (entospletinib)
NAA10 (UniProt P41227)	inactive: 0.015	inactive: -0.01	inactive: -0.026	inactive: -0.001	inactive: -0.01	inactive: 0.067	inactive: 0.034	inactive: -0.005	inactive: 0.002	inactive: 0.019	inactive: -0.002	inactive: -0.029	inactive: -0.018	inactive: -0.023	inactive: -0.004
NCS1 (UniProt P62166)	inactive: -0.003	inactive: 0.012	inactive: 0.014	inactive: 0.015	inactive: -0.004	inactive: -0.013	inactive: 0.016	inactive: -0.003	inactive: -0.015	inactive: 0.037	inactive: 0.006	inactive: 0.049	inactive: -0.019	inactive: -0.037	inactive: -0.021
